PubChem BioAssay AID504793 – Drosophila RNAi Screening Center, 2011
The deposit covers about 23,000 reagents; shown is an unselected part of those that have a named target and a result. In the full data, 62 (0.27%) got an active call. 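Calls come from follow-up tests whose scores are not deposited, so confirmed genes may have low counts here; counts are not normalised per plate.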 Raw values vary from plate to plate and are shown uncorrected.

- Aim: 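Genes required for cells to halt at G2/M after double-strand DNA breaks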 (primary screen)
- Cell system: Drosophila S2R+ cells
- Reagent: long dsRNA against Drosophila genes, about 0.25 µg dsRNA per well
- Timing: 4 days of dsRNA, then 4 hours of drug before read-out
- Treatment: doxorubicin 0.5 µM for 4 hours to cause double-strand breaks, in cells also given a low, harmless dose of dsRNA against nbs to sensitise the assay
- Read-out: 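Per-well count of mitotic cells stained for phospho-histone H3 after doxorubicin exposure, used as mitotic index; counts are raw and not normalised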
- Scale: mitotic cells: higher = more cells in mitosis, weaker G2 arrest
- Call rule: 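Genes are called active only when high mitotic counts were reproduced with independent dsRNAs and mitosis was checked for delay without damage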
- Calls: active = confirmed in follow-up tests; inactive = not confirmed

NFAT [DRSC18991]
- mitotic cells, replicate 1: 3
- Outcome: inactive

NFAT [DRSC19393]
- mitotic cells, replicate 1: 17
- Outcome: inactive

NFAT [DRSC24828]
- mitotic cells, replicate 1: 3
- Outcome: inactive

NFAT [DRSC29663]
- mitotic cells, replicate 1: 9
- Outcome: inactive

CG6739 [DRSC02987]
- mitotic cells, replicate 1: 5
- Outcome: inactive

Cdk1 [DRSC03504]
- mitotic cells, replicate 1: 6
- Outcome: inactive

skd [DRSC11898]
- mitotic cells, replicate 1: 5
- Outcome: inactive

Mid1 [DRSC04231]
- mitotic cells, replicate 1: 5
- Outcome: inactive

Mid1 [DRSC04308]
- mitotic cells, replicate 1: 7
- Outcome: inactive

Mid1 [DRSC22773]
- mitotic cells, replicate 1: 11
- Outcome: inactive

Mid1 [DRSC22803]
- mitotic cells, replicate 1: 13
- Outcome: inactive

Mid1 [DRSC25509]
- mitotic cells, replicate 1: 1
- Outcome: inactive

Mid1 [DRSC28634]
- mitotic cells, replicate 1: 5
- Outcome: inactive

CG5339 [DRSC04496]
- mitotic cells, replicate 1: 5
- Outcome: inactive

nemy [DRSC05357]
- mitotic cells, replicate 1: 6
- Outcome: inactive

nemy [DRSC07262]
- mitotic cells, replicate 1: 3
- Outcome: inactive

nemy [DRSC26532]
- mitotic cells, replicate 1: 7
- Outcome: inactive

CG6144 [DRSC02934]
- mitotic cells, replicate 1: 10
- Outcome: inactive

CG33490 [DRSC10587]
- mitotic cells, replicate 1: 4
- Outcome: inactive

frac [DRSC10867]
- mitotic cells, replicate 1: 5
- Outcome: inactive

frac [DRSC29239]
- mitotic cells, replicate 1: 2
- Outcome: inactive

b [DRSC03487]
- mitotic cells, replicate 1: 3
- Outcome: inactive

b [DRSC28837]
- mitotic cells, replicate 1: 10
- Outcome: inactive

A portion taken from the entries so far:
CG33490 [DRSC10587]
- mitotic cells, replicate 1: 4
- Outcome: inactive

frac [DRSC10867]
- mitotic cells, replicate 1: 5
- Outcome: inactive
